From publication PMC7819943, “Rice protein-binding microarrays: a tool to detect cis-acting elements near promoter regions in rice”
The other results are listed elsewhere or left out.

The sequences below were run against T1, OsSMF1 (Oryza sativa, UniProt Q6ZLB0 1-436) (assay: protein-binding microarray (RPBM); PBS, 2% BSA, 51.3 ng/ul salmon testes DNA, 50 uM zinc acetate, 200 nM TF, 25 C, 1 h; high values mean tight binding). Conditions: protein: recombinant; tags: N-terminal polyhistidine and DsRed monomer fusion (pET32a); chain copies: 2; label: CyDye5-dUTP incorporated in the synthesized complementary strand; 3' TTTTT single-stranded linker to array surface; dsDNA, one strand shown.
T1 sequence: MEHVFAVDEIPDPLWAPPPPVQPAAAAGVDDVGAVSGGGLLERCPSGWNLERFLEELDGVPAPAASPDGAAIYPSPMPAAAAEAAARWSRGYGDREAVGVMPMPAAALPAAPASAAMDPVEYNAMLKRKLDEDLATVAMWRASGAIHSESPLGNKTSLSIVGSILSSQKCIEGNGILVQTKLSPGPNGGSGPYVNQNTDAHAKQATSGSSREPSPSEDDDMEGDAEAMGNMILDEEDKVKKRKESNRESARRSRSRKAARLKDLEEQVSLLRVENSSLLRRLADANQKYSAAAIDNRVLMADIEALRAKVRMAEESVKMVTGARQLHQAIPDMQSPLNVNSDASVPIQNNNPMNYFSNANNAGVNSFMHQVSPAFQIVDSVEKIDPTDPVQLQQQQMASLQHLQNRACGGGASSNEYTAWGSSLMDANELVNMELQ
Summary of the method: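 The binding signal is fluorescence intensity per array feature (arbitrary units). Readings came from an Axon 4000B scanner after a washed, 2% BSA-blocked, double-stranded custom Agilent array had been incubated for 1 h at 25 °C with 200 nM protein and 50 µM zinc acetate. The protein was a Ni–NTA-purified transcription factor fused N-terminally to polyhistidine and DsRed, expressed in E. coli BL21-CodonPlus.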
In the case of “TCTTTAGTCCCGGTTCCTATTTAAACCGGGATTATTGTGGCGGAGTCACCTAGTGCAG”, the binding signal is reported as 47900 fluorescence intensity (a.u.). In the case of “CTTCGTATGGTTCAAATCCTCTGCCTTAATGACACCACTGCGGAGTCACCTAGTGCAG”, the binding signal is reported as 3160 fluorescence intensity (a.u.). In the case of “CCGCGTCTCTGCGACGCGCGTGGCGCCACGAAGCGCTCCCCGGAGTCACCTAGTGCAG”, the binding signal is reported as 4660 fluorescence intensity (a.u.). “ACAGAGGACCTCACTCCTTCTCAAGTATCATCATGTATCACGGAGTCACCTAGTGCAG” was tested, and the binding signal was 3370 fluorescence intensity (a.u.). In the case of “AAGAAGTACGTCATATATTCAGTTTTATGTATTATTTTATCGGAGTCACCTAGTGCAG”, the binding signal is reported as 3310 fluorescence intensity (a.u.). In the case of “TTAACACTCCCAATATTTTAGCACTACCCCGAAATTTCCGCGGAGTCACCTAGTGCAG”, the binding signal is reported as 8040 fluorescence intensity (a.u.). In the case of “TGGCGCAGTCGCCCGTGACGCGCGGCCGCTGCCGTCGAAGCGGAGTCACCTAGTGCAG”, the binding signal is reported as 3320 fluorescence intensity (a.u.). With “CGGCCTTTTCCCCGGCCCCTTCGGGGAAGCCCACCACGTGCGGAGTCACCTAGTGCAG” the binding signal was 3570 fluorescence intensity (a.u.). In the case of “TGTTAATTCCACATCAGCGCTACGTCAATGCCACGTGGTACGGAGTCACCTAGTGCAG”, the binding signal is reported as 27900 fluorescence intensity (a.u.). With “CACACCCAACACTCCACACAAGTCAGCTCAGTGACCGCCACGGAGTCACCTAGTGCAG” the binding signal was 4300 fluorescence intensity (a.u.). In the case of “GGAGGGGTGCTTACGTGAGTCGACGACCATGCGGTAGGAGCGGAGTCACCTAGTGCAG”, the binding signal is reported as 3910 fluorescence intensity (a.u.). For “CACCCGCAGCCCGCGCCGCTCCGTTCGCAGCGCTCGCCCGCGGAGTCACCTAGTGCAG”, the binding signal was 21700 fluorescence intensity (a.u.). “GCAGCTTTGATCATTTCAATCAGGTGATTCAGACCAAAGTCGGAGTCACCTAGTGCAG” was tested, and the binding signal was 3180 fluorescence intensity (a.u.). With “CAATATAATTTTCTTTTCATACGTGTGATGAGTTTGAAGACGGAGTCACCTAGTGCAG” the binding signal was 3620 fluorescence intensity (a.u.). “GCATTCTGAAAGCCTACACGTCGATCGATTGCCAAGTCAGCGGAGTCACCTAGTGCAG” was tested, and the binding signal was 9950 fluorescence intensity (a.u.). With “TTCGCTGACACGCCCCGTCCACTCTTGTCCACGCTGCGCCCGGAGTCACCTAGTGCAG” the binding signal was 3380 fluorescence intensity (a.u.). With “CCGAATCAGCTGCTGACGTATCGCCTCCGCCATTACCACCCGGAGTCACCTAGTGCAG” the binding signal was 10600 fluorescence intensity (a.u.). For “CCCATGGCGTAAGCCCTCCTGCATAGCTGGCGTCTTTACCCGGAGTCACCTAGTGCAG”, the binding signal was 5640 fluorescence intensity (a.u.). In the case of “TGCGAGGTCTGCCCAAGTCCACGTTCATTGATTGGTTAACCGGAGTCACCTAGTGCAG”, the binding signal is reported as 3340 fluorescence intensity (a.u.). In the case of “CACGTAAGCGTCACGTCAATGCCACGTGGGACGGTGACCTCGGAGTCACCTAGTGCAG”, the binding signal is reported as 27900 fluorescence intensity (a.u.). In the case of “GGGCTTCTCCAGGTTTACGGTTAAGGGATGAGTCAGATTCCGGAGTCACCTAGTGCAG”, the binding signal is reported as 7310 fluorescence intensity (a.u.). For “GGAGAGCTTTACAGTCGGTCAACGTGGAGGCTATGGGTACCGGAGTCACCTAGTGCAG”, the binding signal was 4280 fluorescence intensity (a.u.). For “TCAGAGATCACAGTATCGTCGTCACAGTGACTAAATGCAGCGGAGTCACCTAGTGCAG”, the binding signal was 4550 fluorescence intensity (a.u.). With “ACTATCAGGAAGCCCAGGAAGCCCACGTACGCCGGCACCCCGGAGTCACCTAGTGCAG” the binding signal was 3440 fluorescence intensity (a.u.). With “GCAGGGCAGGCTGACAGCTCATCTTCTCAGAGGATCCGATCGGAGTCACCTAGTGCAG” the binding signal was 5100 fluorescence intensity (a.u.). In the case of “TGCATACTCCTACTCATTTGCCCACTCTGTGCAGGCAGTGCGGAGTCACCTAGTGCAG”, the binding signal is reported as 3880 fluorescence intensity (a.u.). For “TGGTGGGGCTGGCACACTTGTCATCACCTGACTTCAGTAGCGGAGTCACCTAGTGCAG”, the binding signal was 6410 fluorescence intensity (a.u.). “TGATACTCCCGGTCCCATGTCACCGACAAGTATAATCGTTCGGAGTCACCTAGTGCAG” was tested, and the binding signal was 4810 fluorescence intensity (a.u.). For “TATCCGTATGTGTTTAGAGCTGACTTGTAGGGTAGTATTGCGGAGTCACCTAGTGCAG”, the binding signal was 4160 fluorescence intensity (a.u.). “TATTAAACTTGCTCTAAACGTCATCAATCAATTGATCAAGCGGAGTCACCTAGTGCAG” was tested, and the binding signal was 5340 fluorescence intensity (a.u.). With “AGTTGGGAACCTCTCAAAATGCACCTAGAATTAACCTCTCCGGAGTCACCTAGTGCAG” the binding signal was 3500 fluorescence intensity (a.u.). “GGAAATGCATGCATTTGCAGGGCTTCATGGAGCGCCTGGACGGAGTCACCTAGTGCAG” was tested, and the binding signal was 24800 fluorescence intensity (a.u.). With “TTGATTGGTTACAACTACATAAGAGGACTCTTAATACCAACGGAGTCACCTAGTGCAG” the binding signal was 37900 fluorescence intensity (a.u.). For “TCGGCAATGGCATGCATCTTCTGTTTTAAAATATAGGCATCGGAGTCACCTAGTGCAG”, the binding signal was 3290 fluorescence intensity (a.u.). In the case of “CGAATCCCGGGCGATGGTTGTCCGGCTGCCGTGTCGTGTACGGAGTCACCTAGTGCAG”, the binding signal is reported as 4360 fluorescence intensity (a.u.). “AGTGCATGCGTGTGCGCCTGCCTGCTTACTTCCATCTCGACGGAGTCACCTAGTGCAG” was tested, and the binding signal was 7880 fluorescence intensity (a.u.). In the case of “GTGGTTCTCTGATGTTTAAGCATCAGCTTGAATTCTGAACCGGAGTCACCTAGTGCAG”, the binding signal is reported as 3750 fluorescence intensity (a.u.). With “CTCCGGCCTCTACCGCATCTACCACCATCACTAGCTCTCGCGGAGTCACCTAGTGCAG” the binding signal was 3380 fluorescence intensity (a.u.). In the case of “GCGGCCGACGAGGAGATCCGCGCCATGATACGCGTGGCCGCGGAGTCACCTAGTGCAG”, the binding signal is reported as 4990 fluorescence intensity (a.u.). For “TCTGTTTAGTTACATCACTGATGGTCTTGATTTCGCAGTGCGGAGTCACCTAGTGCAG”, the binding signal was 4040 fluorescence intensity (a.u.). “ATCTTTATATGTCGACTCACCACAAATCCTTTATATTGCACGGAGTCACCTAGTGCAG” was tested, and the binding signal was 4660 fluorescence intensity (a.u.). In the case of “CTTTATATAGAAAAGTTTCCCCAGAAATTGTTTGTATAGACGGAGTCACCTAGTGCAG”, the binding signal is reported as 23300 fluorescence intensity (a.u.). In the case of “AATAATTGAAAATTTTGTTTGAGTGCACATCGTGTGCATTCGGAGTCACCTAGTGCAG”, the binding signal is reported as 7610 fluorescence intensity (a.u.). “ATCTAGCTAGTAGCAGTAGATTCAGTGTCAGCATATATACCGGAGTCACCTAGTGCAG” was tested, and the binding signal was 6200 fluorescence intensity (a.u.). For “TAACATGTGTGTCCAGTGACAAATTCTTATTTACCACTTACGGAGTCACCTAGTGCAG”, the binding signal was 22100 fluorescence intensity (a.u.). “CTCGGCGGCGGCGGAAGGCGAGCTTGGCGGCCGACGTGGACGGAGTCACCTAGTGCAG” was tested, and the binding signal was 8140 fluorescence intensity (a.u.). “ACAATAGGTAGTGTGGTGCATCTTATCTCCACGACTCCCCCGGAGTCACCTAGTGCAG” was tested, and the binding signal was 3170 fluorescence intensity (a.u.). In the case of “CCATCGCCGCCGCCCTCTTCTTCTTCTTCTTGCGAAGCAACGGAGTCACCTAGTGCAG”, the binding signal is reported as 19100 fluorescence intensity (a.u.). With “CTTTGGATCCACAGTCGCCTGGGACCCACCTGTCATCCGGCGGAGTCACCTAGTGCAG” the binding signal was 3220 fluorescence intensity (a.u.). “AGTGCATAAGACTTGCTGATCTGGTCACCATTGGAACTGGCGGAGTCACCTAGTGCAG” was tested, and the binding signal was 4880 fluorescence intensity (a.u.). With “TTGGCTGATGTCCAAAGTGTGAGCTTGGTGTTGCTTTGCTCGGAGTCACCTAGTGCAG” the binding signal was 3600 fluorescence intensity (a.u.). With “CCCTTGTGTGCGTTATATATTACGGGCGTATAAACACTTACGGAGTCACCTAGTGCAG” the binding signal was 3330 fluorescence intensity (a.u.). “AAGTCTGCTATCATTGCGTAATCACGGTTTGTGCCTTTGTCGGAGTCACCTAGTGCAG” was tested, and the binding signal was 4210 fluorescence intensity (a.u.). In the case of “AGTGCTAGCCACTAACATGTGGGGCTATATGGGTCTCACGCGGAGTCACCTAGTGCAG”, the binding signal is reported as 5570 fluorescence intensity (a.u.).
